Laboratory results: patent US7465469B2, “Microbiocidal formulation comprising essentials oils or their derivatives” (State of Israel, Ministry of Agriculture & Rural …, priority 2001, dated 2008)
Some entries share one result that the patent states for a list of compounds.

Test system: Penicillium digitatum
Assay: Decay of Penicillium-inoculated grapefruit after 2-minute dip
Assay type: in vivo, Penicillium digitatum on grapefruit
Conditions: 0.2% Geraniol or 0.1-0.2% Citral dissolved in 25% EtOH; 18th day after inoculation
Description: Unblemished grapefruit were harvested from the orchard and on the same day sorted again in the laboratory to eliminate injured fruit. The grapefruit were washed with tap water and air-dried. Each fruit was then inoculated by piercing its flavedo tissue 1.5 mm deep with a tool incorporating three needles at three different sites. Prior to each piercing, the tool was immersed in a spore suspension of Penicillium digitatum (10^6 spores/ml).

Row | Structure (SMILES) | fruit rotten
1 | CC(C)=CCC/C(C)=C/CO [Geraniol] | 20-40%
2 | CC(C)=CCCC(C)=CC=O [Citral, 3,7-dimethyl-2,6-octadienal] | 20-40%
